Results taken from the supplement of paper PMC3334620.
In all, about 33,000 sequences were measured (“E-score (-0.5 to 0.5)”: median about -0.0059, highest 2% from about 0.26 on). Some of the results follow.

biological target: T1, Cin5 (UniProt P40917); test: PBM E-score (8-mer binding enrichment) (E-score (-0.5 to 0.5)); higher = stronger / more preferred TF binding; settings: protein concentration: 100 nM; construct: GST-full length
T1 sequence: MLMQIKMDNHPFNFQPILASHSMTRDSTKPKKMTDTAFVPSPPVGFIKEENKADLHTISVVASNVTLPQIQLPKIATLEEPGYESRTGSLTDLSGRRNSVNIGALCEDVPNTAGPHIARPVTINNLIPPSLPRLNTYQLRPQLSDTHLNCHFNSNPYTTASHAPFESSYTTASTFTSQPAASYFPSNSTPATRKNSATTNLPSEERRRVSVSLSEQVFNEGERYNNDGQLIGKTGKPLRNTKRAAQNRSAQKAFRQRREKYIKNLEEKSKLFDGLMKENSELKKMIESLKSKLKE
In short: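 Universal all-10-mer Agilent arrays, fresh or stripped once, were converted to double-stranded form by primer extension. GST-tagged yeast transcription factors from PURExpress in vitro transcription/translation, full-length or DNA-binding domain only, were applied at about 100-200 nM and detected with fluorescent anti-GST. After masliner normalisation, the Universal PBM Analysis Suite scored each ungapped eight-base word together with its reverse complement by E-score.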

Going from CTACTGTC to ACCAAACG, the “PBM E-score” value falls from 0.0684 to -0.038.

Compared with ACTAACAT, AGTACGAG is lower in “PBM E-score” value: 0.192 for the first, 0.0932 for the second.

Compared with CGACTTAG, AACGGCGT is higher in “PBM E-score” value: -0.105 for the first, -0.0715 for the second.

First: GCTAACTA
Second: ATGTGTAC
The “PBM E-score” value of the first is higher: 0.18 for the first, 0.0375 for the second.

Compared with ATGAGCTG, AGCACTAC is lower in “PBM E-score” value: 0.0605 for the first, -0.0958 for the second.

Compared with AAGTGCCT, ACCCTGCG is higher in “PBM E-score” value: -0.25 for the first, -0.145 for the second.

Compared with ATTCGCCC, CAACCGGC is higher in “PBM E-score” value: -0.0199 for the first, -0.00301 for the second.

First: ATTAGCTA
Second: ATAGCGCC
The “PBM E-score” value of the first is higher: 0.3 for the first, 0.0692 for the second.

Compared with CAAGCAGA, AAGGTGGG is lower in “PBM E-score” value: 0.0983 for the first, -0.218 for the second.

First: AACCTAAC
Second: TGCCCAAA
The “PBM E-score” value of the first is higher: 0.14 for the first, -0.145 for the second.

Compared with CCAGATAA, GGCATTTA is lower in “PBM E-score” value: 0.0884 for the first, -0.0216 for the second.

First: CCTGGTGC
Second: GCGGAGGA
The “PBM E-score” value of the first is higher: -0.19 for the first, -0.226 for the second.

First: AAACGGAA
Second: CCAGACGC
The “PBM E-score” value of the first is higher: 0.244 for the first, -0.0958 for the second.

First: CAACTAAC
Second: ACGCGTGG
The “PBM E-score” value of the first is higher: 0.158 for the first, -0.113 for the second.

Going from CCTATGGA to AGTTGGAC, the “PBM E-score” value falls from -0.0351 to -0.104.

Compared with CTCCTTGA, CACCAGGG is lower in “PBM E-score” value: -0.164 for the first, -0.274 for the second.

Going from ACCAAGCT to CATGTTGG, the “PBM E-score” value falls from 0.15 to -0.00808.

Going from GGCAATCA to ACGAGTAT, the “PBM E-score” value rises from 0.102 to 0.14.

Going from AGTCCCAG to AAAAAATT, the “PBM E-score” value rises from -0.199 to 0.0788.

Compared with CCGTTAAC, GGGCCGCA is lower in “PBM E-score” value: 0.0424 for the first, -0.252 for the second.

Going from ATACCCTG to AGATCAAA, the “PBM E-score” value rises from -0.0338 to 0.0416.

Going from AGAATAAG to GCCATCTA, the “PBM E-score” value falls from 0.152 to -0.0283.

Going from CCTGTAGA to CTAAGCCA, the “PBM E-score” value falls from 0.0645 to -0.074.

Compared with ATAATAAC, ACTCCACG is lower in “PBM E-score” value: 0.206 for the first, -0.0993 for the second.

Compared with CTGAGTAA, AAATGAAG is lower in “PBM E-score” value: 0.188 for the first, 0.153 for the second.

First: ACTGCTGA
Second: AACGCGCA
The “PBM E-score” value of the first is lower: -0.0132 for the first, 0.0734 for the second.

Compared with ACAAACCA, CCTCTAGA is lower in “PBM E-score” value: -0.0109 for the first, -0.135 for the second.

Compared with GCGAGTAC, ATACTTGC is lower in “PBM E-score” value: 0.158 for the first, 0.0833 for the second.

Compared with CCTTGTCC, TACGTGGA is higher in “PBM E-score” value: -0.0761 for the first, 0.121 for the second.

Compared with AGTCAGCA, ACAGGGGA is lower in “PBM E-score” value: 0.0094 for the first, -0.146 for the second.

First: CGTTGAAG
Second: AGCTTAAT
The “PBM E-score” value of the first is lower: -0.121 for the first, 0.21 for the second.

Compared with CTCTGCTC, GACTGGGC is lower in “PBM E-score” value: -0.113 for the first, -0.323 for the second.

First: ATACGAGA
Second: ACGTGGGG
The “PBM E-score” value of the first is higher: -0.126 for the first, -0.165 for the second.

Compared with GAATACTC, CGATCTGC is lower in “PBM E-score” value: -0.00677 for the first, -0.0483 for the second.

Compared with GCGAGGTA, GTCGATGA is higher in “PBM E-score” value: -0.122 for the first, 0.0342 for the second.

Compared with CCGAGGCC, CAACTGTC is higher in “PBM E-score” value: -0.207 for the first, -0.102 for the second.

Compared with ATACTTCC, CTCCCGGC is lower in “PBM E-score” value: 0.0394 for the first, -0.106 for the second.

Going from CGTTGTCA to AAACGTCT, the “PBM E-score” value falls from 0.112 to -0.0492.

Going from AAGTGGAT to AGGTCAGA, the “PBM E-score” value falls from -0.146 to -0.163.

Compared with ATGCTCGG, TTAGTCAA is higher in “PBM E-score” value: 0.0708 for the first, 0.0995 for the second.

Compared with GATCTGTA, AGGTCATG is lower in “PBM E-score” value: 0.121 for the first, -0.054 for the second.

Going from GTATCTGA to CCGTGACA, the “PBM E-score” value falls from 0.0655 to 0.0327.

Compared with AGGCTTTG, CGGGTGGC is lower in “PBM E-score” value: -0.135 for the first, -0.217 for the second.

Going from CAAGTGAA to TGAACGAA, the “PBM E-score” value falls from -0.0255 to -0.0612.

First: ATACACCC
Second: ACTCACCC
The “PBM E-score” value of the first is higher: 0.0362 for the first, 0.00023 for the second.

Going from ACTCCGCC to TAGAACGA, the “PBM E-score” value falls from 0.0503 to -0.0153.

Going from AATATGTA to AGGTTCGC, the “PBM E-score” value falls from 0.196 to -0.276.

Going from ACGACAGG to AAGAGAAG, the “PBM E-score” value falls from 0.0411 to -0.0313.

Compared with AGCGTTGC, TAATCGCA is higher in “PBM E-score” value: -0.0908 for the first, 0.294 for the second.

Going from AGTCAGAG to AGTGTTGC, the “PBM E-score” value rises from -0.0527 to 0.132.

First: CAACGGCG
Second: GGAGTCCA
The “PBM E-score” value of the first is higher: -0.0924 for the first, -0.211 for the second.

Going from TAATTAAA to ATCATTGG, the “PBM E-score” value rises from 0.068 to 0.13.

Going from CATCCCTC to TAAATGCA, the “PBM E-score” value rises from -0.00976 to 0.175.

Going from AGGTTCCA to AATGCGGT, the “PBM E-score” value rises from -0.0989 to -0.0647.

Compared with CCTCCAGA, AGGCAGAT is higher in “PBM E-score” value: -0.0797 for the first, 0.0693 for the second.

Compared with ACTCGGGG, ACATCGCT is higher in “PBM E-score” value: -0.103 for the first, 0.0356 for the second.

First: CGGCAAAC
Second: GGACTGTA
The “PBM E-score” value of the first is higher: 0.0939 for the first, -0.109 for the second.

Compared with GCTCAGGA, AAAGTGTT is higher in “PBM E-score” value: -0.136 for the first, 0.149 for the second.

Going from ACGAAGTA to CGTTTTAG, the “PBM E-score” value falls from 0.0511 to -0.206.

First: GGACCACA
Second: CAGCTTCG
The “PBM E-score” value of the first is lower: -0.0168 for the first, 0.00093 for the second.

Compared with GCGAGTTA, GACTTCGA is lower in “PBM E-score” value: 0.166 for the first, -0.0998 for the second.

Compared with CGCAACCG, GATTTAGA is higher in “PBM E-score” value: -0.153 for the first, -0.0705 for the second.

Going from AGTCCGCC to CACGTACA, the “PBM E-score” value falls from -0.123 to -0.141.

Going from ATAGTAAG to CGGGGTGA, the “PBM E-score” value falls from 0.236 to 0.134.

First: AGCGAGGC
Second: AAGCGTAC
The “PBM E-score” value of the first is lower: -0.157 for the first, -0.0414 for the second.

Compared with ATAGGATG, AATCTATA is lower in “PBM E-score” value: 0.209 for the first, 0.163 for the second.

First: CATTGGAC
Second: AGCCTACG
The “PBM E-score” value of the first is lower: -0.083 for the first, 0.0355 for the second.

First: CGTAAATC
Second: TGAGGCCA
The “PBM E-score” value of the first is higher: 0.0715 for the first, 0.0508 for the second.

First: CGAGGTTA
Second: CCTTTTTA
The “PBM E-score” value of the first is higher: 0.0708 for the first, -0.00478 for the second.

Going from ACTGTGCA to AAAACCTC, the “PBM E-score” value rises from -0.123 to 0.145.

Going from GAGGGAGA to CGCCCTGC, the “PBM E-score” value rises from -0.17 to -0.0782.

Going from ATTAAGCA to CAGTGCTC, the “PBM E-score” value falls from 0.112 to -0.121.

Compared with TCGGTGAA, AAGCTTAC is higher in “PBM E-score” value: -0.0666 for the first, 0.282 for the second.

Compared with TAACATGA, CGGTTCGC is lower in “PBM E-score” value: 0.071 for the first, -0.0697 for the second.

Going from AAGGCGTA to CCAAATGG, the “PBM E-score” value rises from -0.133 to -0.0984.

Compared with CGAGCAGC, GAGGATCA is lower in “PBM E-score” value: 0.0622 for the first, -0.0895 for the second.

Going from GTGGTTGA to TGCGGCCA, the “PBM E-score” value falls from -0.0708 to -0.148.

Compared with AGATGGAA, AATTTAGT is higher in “PBM E-score” value: 0.167 for the first, 0.284 for the second.

First: GCTTCGAC
Second: ACGTAGGG
The “PBM E-score” value of the first is lower: -0.146 for the first, -0.142 for the second.

Compared with ATAGGCTG, AGCCTTGC is lower in “PBM E-score” value: -0.0375 for the first, -0.0563 for the second.

First: ACTATGTC
Second: AGTCAGGG
The “PBM E-score” value of the first is higher: -0.0438 for the first, -0.227 for the second.

First: CCTGAGGA
Second: CAAGTGGA
The “PBM E-score” value of the first is lower: 0.0203 for the first, 0.0672 for the second.

Going from AAACTTTA to AATCTGGT, the “PBM E-score” value rises from 0.151 to 0.22.

First: CACAACAA
Second: CGTACTAC
The “PBM E-score” value of the first is lower: -0.0522 for the first, -0.00888 for the second.

First: AGCCGGAT
Second: GAAACTTA
The “PBM E-score” value of the first is lower: -0.0226 for the first, 0.214 for the second.

First: CGTAGAAA
Second: AGGAAGCA
The “PBM E-score” value of the first is higher: -0.0929 for the first, -0.243 for the second.
